Experimental data: PubChem BioAssay AID1259308 (NCATS, 2017)

- Aim: 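Genes whose loss raises luciferase production in HEK293 cells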 (primary screen)
- System: human HEK293 embryonic kidney cells stably expressing firefly luciferase (HEK-CMV-Luc2-Hygro)
- Reagents: single siRNA against human genes, 0.8 pmol siRNA per well
- Duration: 72 h
- Measured: 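Luciferase light (ONE-Glo) measured on one replicate plate set and viability (CellTiter-Glo) on the other, scaled to a negative control siRNA, with robust z-scores and luciferase per cell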
- Direction: total luciferase, z-score and total luciferase, % of control: higher = more reporter protein produced
- Active means: 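An siRNA counts as active if its total luciferase robust z-score exceeds 3; genes with two or more such siRNAs out of three were retested with fresh siRNAs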
- Meaning of the calls: active = raised luciferase; inactive = no rise
This is an unselected part of about 59,000 reagents. Over the whole deposit, about 1,510 (2.6%) got an active call. 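Calls use total luciferase alone and ignore viability, so some active siRNAs may act by altering cell number.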 Unmarked entries are inactive. Reagents against one gene are numbered here. Not all columns of the deposit are shown.

NR2F6 #1 scored total luciferase, z-score -0.922; total luciferase, % of control 63.5. Knock-down of NR2F6 #2 came out at: total luciferase, z-score -0.715; total luciferase, % of control 67.7. After knock-down of NR2F6 #3 the results were total luciferase, z-score -0.902; total luciferase, % of control 64. ARHGEF3 #1 gave total luciferase, z-score 1.68; total luciferase, % of control 115. ARHGEF3 #2 gave total luciferase, z-score 0.793; total luciferase, % of control 97.7. For ARHGEF3 #3, the values are total luciferase, z-score -0.355; total luciferase, % of control 74.8.

GAS7 #1 showed total luciferase, z-score -0.578; total luciferase, % of control 70.4. Depletion of GAS7 #2 resulted in: total luciferase, z-score 1.76; total luciferase, % of control 117. For GAS7 #3, the values are total luciferase, z-score -0.267; total luciferase, % of control 76.6. PMFBP1 #1 scored total luciferase, z-score -2.89; total luciferase, % of control 24.3. PMFBP1 #2 gave total luciferase, z-score -1.3; total luciferase, % of control 56.1. With knock-down of PMFBP1 #3, the record shows total luciferase, z-score 0.17; total luciferase, % of control 85.3.

Against KLK7 #1 the deposit lists total luciferase, z-score -1.42; total luciferase, % of control 53.6. After knock-down of KLK7 #2, the screen gave total luciferase, z-score 0.584; total luciferase, % of control 93.5. Depletion of KLK7 #3 came out at: total luciferase, z-score 4.28 (active); total luciferase, % of control 167. With knock-down of NR1D2 #1, the record shows total luciferase, z-score 1.44; total luciferase, % of control 111. Knock-down of NR1D2 #2 gave: total luciferase, z-score -0.224; total luciferase, % of control 77.4. With knock-down of NR1D2 #3 the results were total luciferase, z-score -0.12; total luciferase, % of control 79.5.

Against PDE6B #1, the values are total luciferase, z-score 0.864; total luciferase, % of control 99.1. Against PDE6B #2, the entry reads total luciferase, z-score -1.35; total luciferase, % of control 55.1. After knock-down of PDE6B #3 the results were total luciferase, z-score 1.45; total luciferase, % of control 111. With knock-down of HGF #1 the results were total luciferase, z-score 0.185; total luciferase, % of control 85.6. Depletion of HGF #2 resulted in: total luciferase, z-score 3.45 (active); total luciferase, % of control 150. After knock-down of HGF #3 the results were total luciferase, z-score -1.17; total luciferase, % of control 58.6.

FXYD6 #1 gave total luciferase, z-score 0.514; total luciferase, % of control 92.1. With knock-down of FXYD6 #2, the screen gave total luciferase, z-score -1.66; total luciferase, % of control 48.9. After knock-down of FXYD6 #3, the screen gave total luciferase, z-score -0.768; total luciferase, % of control 66.6. AVL9 #1 scored total luciferase, z-score 0.462; total luciferase, % of control 91.1. AVL9 #2 scored total luciferase, z-score -0.988; total luciferase, % of control 62.2. AVL9 #3 scored total luciferase, z-score 0.918; total luciferase, % of control 100.

Against ADAM22 #1, the values are total luciferase, z-score 2.33; total luciferase, % of control 128. Depletion of ADAM22 #2 came out at: total luciferase, z-score -0.267; total luciferase, % of control 76.6. With knock-down of ADAM22 #3, the record shows total luciferase, z-score 0.245; total luciferase, % of control 86.8. Against TREML3P #1 the deposit lists total luciferase, z-score 0.57; total luciferase, % of control 93.2. For TREML3P #2, the values are total luciferase, z-score 1.1; total luciferase, % of control 104. With knock-down of TREML3P #3, the record shows total luciferase, z-score 3.8 (active); total luciferase, % of control 157.

Knock-down of ZNF138 #1 came out at: total luciferase, z-score 0.489; total luciferase, % of control 91.6. ZNF138 #2 gave total luciferase, z-score 0.381; total luciferase, % of control 89.5. ZNF138 #3 scored total luciferase, z-score -1.1; total luciferase, % of control 60. Silencing of TOR1AIP2 #1 came out at: total luciferase, z-score 2.34; total luciferase, % of control 128. With knock-down of TOR1AIP2 #2, the record shows total luciferase, z-score 1.61; total luciferase, % of control 114. After knock-down of TOR1AIP2 #3, the screen gave total luciferase, z-score -0.686; total luciferase, % of control 68.2.

TOR1AIP2 #4 gave total luciferase, z-score 0.624; total luciferase, % of control 94.3. After knock-down of TOR1AIP2 #5, the record shows total luciferase, z-score 1.26; total luciferase, % of control 107. For TOR1AIP2 #6 the deposit lists total luciferase, z-score -0.407; total luciferase, % of control 73.8.

Ordered by “total luciferase, % of control” (descending): some entries from above.
ADAM22 #1: total luciferase, z-score = 2.33; total luciferase, % of control = 128
AVL9 #3: total luciferase, z-score = 0.918; total luciferase, % of control = 100
AVL9 #1: total luciferase, z-score = 0.462; total luciferase, % of control = 91.1
ADAM22 #2: total luciferase, z-score = -0.267; total luciferase, % of control = 76.6
FXYD6 #3: total luciferase, z-score = -0.768; total luciferase, % of control = 66.6
AVL9 #2: total luciferase, z-score = -0.988; total luciferase, % of control = 62.2
FXYD6 #2: total luciferase, z-score = -1.66; total luciferase, % of control = 48.9
